Experimental data: the supplement of paper PMC7238544
Structures can show the parent of a compound that is named as a salt. ± gives the standard deviation of the averaged measurements. The list shows a part of the results. The data scatter; read single values as rough.

Key:
hAMSC donor 1 [1] = assay: Hoechst total cell count ratio vs vehicle control; higher = more cells (less toxicity)
hAMSC donor 2 [2] = assay: as above
hAMSC donor 1 [3] = assay: transgenic luciferase activity (RLU/mg protein) fold change vs vehicle control (ratio); higher = more transgene expression
hAMSC donor 2 [4] = assay: as above
hAMSC donor 1 [5] = assay: transfection efficiency (EGFP+ cells / Hoechst count) fold change vs vehicle control (ratio); hAMSC are human adipose-derived mesenchymal stem cells given an EGFP-luciferase plasmid by lipofection; higher = enhanced transfection
hAMSC donor 2 [6] = assay: as above
[7] = priming compound concentration 0.2 µM
[8] = priming compound concentration 1.7 µM
[9] = priming compound concentration 13 µM

Row | SMILES | Hoechst total cell count ratio (hAMSC donor 1 [1]; [7]) | Hoechst total cell count ratio (hAMSC donor 1 [1]; [8]) | Hoechst total cell count ratio (hAMSC donor 1 [1]; [9]) | Hoechst total cell count ratio (hAMSC donor 2 [2]; [7]) | Hoechst total cell count ratio (hAMSC donor 2 [2]; [8]) | Hoechst total cell count ratio (hAMSC donor 2 [2]; [9]) | transgenic luciferase activity (hAMSC donor 1 [3]; [7]) | transgenic luciferase activity (hAMSC donor 1 [3]; [8]) | transgenic luciferase activity (hAMSC donor 2 [4]; [8]) | transgenic luciferase activity (hAMSC donor 2 [4]; [9]) | transfection efficiency (hAMSC donor 1 [5]; [7]) | transfection efficiency (hAMSC donor 1 [5]; [8]) | transfection efficiency (hAMSC donor 1 [5]; [9]) | transfection efficiency (hAMSC donor 2 [6]; [7]) | transfection efficiency (hAMSC donor 2 [6]; [8]) | transfection efficiency (hAMSC donor 2 [6]; [9]) | transgenic luciferase activity (hAMSC donor 1 [3]; [9]) | transgenic luciferase activity (hAMSC donor 2 [4]; [7])
1 | COC(=O)Nc1nc2cc(C(=O)c3ccccc3)ccc2[nH]1 [Mebendazole] | 1.13 ± 0.18 | 1.23 ± 0.23 | 1.14 ± 0.1 | 0.991 ± 0.064 | 0.753 ± 0.19 | 0.666 ± 0.12 | 0.591 ± 0.15 | 0.768 ± 0.13 | 1.04 ± 0.75 | 0.58 ± 0.31 | 1.03 ± 0.14 | 1.41 ± 0.054 | 0.989 ± 0.14 | 1.25 ± 0.21 | 1.13 ± 0.41 | 0.954 ± 0.21 |  | 
2 | Clc1ccc2c(c1)C(N1CCNCC1)=Nc1ccccc1O2 [Amoxapine] | 0.998 ± 0.096 | 1.03 ± 0.11 | 1.24 ± 0.14 | 1.14 ± 0.044 | 1.26 ± 0.15 | 1.41 ± 0.13 | 0.746 ± 0.12 | 1.14 ± 0.46 | 1.42 ± 0.27 | 0.458 ± 0.13 | 1.09 ± 0.23 | 1.15 ± 0.28 | 0.776 ± 0.18 | 1.19 ± 0.42 | 1.3 ± 0.22 | 0.855 ± 0.057 |  | 
3 | CNC(=C[N+](=O)[O-])NCCSCc1ccc(CN(C)C)o1 [Ranitidine hydrochloride] | 1.14 ± 0.07 | 1.39 ± 0.24 | 1.3 ± 0.028 | 1.16 ± 0.1 | 0.802 ± 0.2 | 1.2 ± 0.21 | 0.462 ± 0.23 |  | 0.522 ± 0.058 |  | 1.38 ± 0.24 | 1.08 ± 0.14 | 1.63 ± 0.3 | 0.734 ± 0.024 | 1.48 ± 0.12 | 1.1 ± 0.17 | 6.23 ± 1.7 | 0.718 ± 0.29
4 | C=C(CC)C(=O)c1ccc(OCC(=O)O)c(Cl)c1Cl [Ethacrynic acid] | 1.18 ± 0.11 | 0.908 ± 0.2 | 0.883 ± 0.089 | 1.41 ± 0.21 | 1.34 ± 0.41 | 1.26 ± 0.46 |  | 1.84 ± 1.7 | 0.718 ± 0.042 | 0.395 ± 0.054 | 1.28 ± 0.3 | 0.971 ± 0.41 | 1.27 ± 0.23 | 1.05 ± 0.11 | 1.18 ± 0.048 | 1.13 ± 0.39 | 0.792 ± 0.17 | 
5 | CC1=C(CC(=O)O)c2cc(F)ccc2/C1=C\c1ccc([S+](C)[O-])cc1 (centres undefined) [Sulindac] | 1.23 ± 0.068 | 1.44 ± 0.36 | 1.52 ± 0.31 | 1.17 ± 0.086 | 0.8 ± 0.38 | 1.4 ± 0.048 | 0.977 ± 0.85 | 0.667 ± 0.24 | 0.787 ± 0.32 | 0.473 ± 0.041 | 1.37 ± 0.23 | 1.17 ± 0.11 | 0.903 ± 0.081 | 1 ± 0.078 | 1.8 ± 0.45 | 0.683 ± 0.02 |  | 
6 | CN(C)CCCN1c2ccccc2CCc2ccccc21 [Imipramine hydrochloride] | 1.22 ± 0.075 | 1.31 ± 0.21 | 1.47 ± 0.25 | 0.838 ± 0.039 | 0.881 ± 0.063 | 1.2 ± 0.18 | 0.796 ± 0.067 |  | 0.463 ± 0.31 |  | 1.31 ± 0.3 | 1.06 ± 0.13 | 1 ± 0.17 | 1.04 ± 0.11 | 1.35 ± 0.44 | 1.01 ± 0.25 | 0.675 ± 0.18 | 1.04 ± 0.2
7 | NC1CCN(c2cccc(Cl)n2)CC1 | 1.56 ± 0.28 | 1.06 ± 0.024 | 1.54 ± 0.16 | 1.15 ± 0.019 | 1.07 ± 0.2 | 1.3 ± 0.12 | 0.743 ± 0.42 |  | 0.602 ± 0.11 |  | 1.18 ± 0.36 | 1.23 ± 0.095 | 1.01 ± 0.16 | 1.1 ± 0.05 | 1.56 ± 0.38 | 1.13 ± 0.27 | 0.522 ± 0.35 | 0.635 ± 0.095
8 | CCCNC(C)C(=O)Nc1ccccc1C (centres undefined) [Prilocaine hydrochloride] | 1.23 ± 0.11 | 0.972 ± 0.072 | 1.03 ± 0.087 | 0.799 ± 0.16 | 0.818 ± 0.067 | 0.994 ± 0.031 |  | 0.671 ± 0.57 | 0.744 ± 0.11 | 0.808 ± 0.42 | 1.11 ± 0.26 | 1.42 ± 0.44 | 0.932 ± 0.23 | 1.52 ± 0.32 | 1.28 ± 0.18 | 1.43 ± 0.15 | 0.865 ± 0.25 | 
9 | CC(C)C(=O)Nc1ccc([N+](=O)[O-])c(C(F)(F)F)c1 [Flutamide] | 1.1 ± 0.089 | 1.01 ± 0.14 | 0.725 ± 0.44 | 1.28 ± 0.039 | 0.912 ± 0.051 | 1.06 ± 0.06 | 1.08 ± 0.43 |  | 0.298 ± 0.16 |  | 1.35 ± 0.46 | 1.23 ± 0.31 | 0.919 ± 0.35 | 1.05 ± 0.17 | 1.76 ± 0.15 | 1.25 ± 0.069 | 1.8 ± 0.93 | 0.664 ± 0.029
10 | COc1c2occc2cc2ccc(=O)oc12 [Methoxsalen] | 1.22 ± 0.25 | 1.44 ± 0.043 | 1.5 ± 0.21 | 1.15 ± 0.033 | 0.919 ± 0.24 | 1.06 ± 0.059 | 0.591 ± 0.32 |  | 1.05 ± 0.36 |  | 1.07 ± 0.41 | 1.07 ± 0.092 | 0.897 ± 0.071 | 0.996 ± 0.07 | 1.26 ± 0.21 | 0.888 ± 0.14 | 0.868 ± 0.34 | 0.783 ± 0.35
11 | CC(=O)S[C@@H]1CC2=CC(=O)CC[C@]2(C)[C@H]2CC[C@@]3(C)[C@@H](CC[C@@]34CCC(=O)O4)[C@H]12 [Spironolactone] | 1.09 ± 0.06 | 1.36 ± 0.23 | 1.38 ± 0.3 | 1.08 ± 0.18 | 0.792 ± 0.057 | 0.766 ± 0.023 | 0.546 ± 0.13 | 0.55 ± 0.62 | 1.4 ± 0.43 | 0.668 ± 0.17 | 1.34 ± 0.1 | 0.885 ± 0.17 | 0.833 ± 0.2 | 1.05 ± 0.21 | 1.26 ± 0.25 | 0.869 ± 0.21 |  | 
12 | C#C[C@]1(O)CC[C@H]2[C@@H]3CCC4=Cc5oncc5C[C@]4(C)[C@H]3CC[C@@]21C [Danazol] | 0.984 ± 0.14 | 0.949 ± 0.16 | 1.16 ± 0.092 | 1.11 ± 0.049 | 0.969 ± 0.018 | 0.978 ± 0.39 | 0.828 ± 0.42 | 0.474 ± 0.32 | 0.692 ± 0.081 | 0.374 ± 0.075 | 0.95 ± 0.087 | 1.06 ± 0.33 | 0.91 ± 0.14 | 1.11 ± 0.11 | 1.63 ± 0.079 | 1.37 ± 0.33 |  | 
13 | OC(Cn1cncn1)(Cn1cncn1)c1ccc(F)cc1F [Fluconazole] | 1.11 ± 0.1 | 1.4 ± 0.2 | 1.36 ± 0.21 | 1.1 ± 0.26 | 1.01 ± 0.21 | 0.828 ± 0.15 | 0.59 ± 0.19 | 0.62 ± 0.12 | 0.683 ± 0.067 | 0.97 ± 0.26 | 1.04 ± 0.046 | 0.985 ± 0.18 | 1.09 ± 0.21 | 1.01 ± 0.19 | 1.25 ± 0.3 | 1.16 ± 0.23 |  | 
14 | CN1CCN(C2=Nc3cc(Cl)ccc3Nc3ccccc32)CC1 [Clozapine] |  |  |  |  |  |  | 1.72 ± 1.3 |  | 0.335 ± 0.14 |  | 1.39 ± 0.081 | 1.05 ± 0.15 | 0.966 ± 0.15 | 0.889 ± 0.17 | 0.983 ± 0.014 | 0.724 ± 0.15 | 1.02 ± 0.75 | 0.65 ± 0.092
15 | Nc1ncnc2c1ncn2[C@@H]1O[C@H](CO)[C@@H](O)[C@@H]1O [Vidarabine] | 0.918 ± 0.14 | 1.05 ± 0.22 | 0.711 ± 0.026 | 1.21 ± 0.2 | 0.817 ± 0.12 | 1.04 ± 0.21 | 0.664 ± 0.051 |  | 0.594 ± 0.1 |  | 1.41 ± 0.13 | 1.12 ± 0.14 | 1.29 ± 0.41 | 1.11 ± 0.16 | 1.34 ± 0.16 | 1.28 ± 0.35 | 13.5 ± 5.3 | 0.93 ± 0.12
16 | OCCN1C[C@H](O)[C@@H](O)[C@H](O)[C@H]1CO [Miglitol] | 1.01 ± 0.1 | 1.03 ± 0.11 | 1.03 ± 0.066 | 1.38 ± 0.14 | 1.25 ± 0.17 | 1.28 ± 0.26 |  | 0.888 ± 0.63 | 0.676 ± 0.086 | 0.46 ± 0.31 | 1.44 ± 0.29 | 1.42 ± 0.24 | 1.39 ± 0.32 | 1.04 ± 0.34 | 1.01 ± 0.077 | 0.9 ± 0.12 | 0.984 ± 0.29 | 
17 | NS(=O)(=O)Cc1noc2ccccc12 [Zonisamide] | 1.22 ± 0.18 | 0.74 ± 0.063 | 0.989 ± 0.14 | 1.5 ± 0.84 | 0.707 ± 0.062 | 0.993 ± 0.24 |  | 0.434 ± 0.28 | 0.641 ± 0.042 | 0.543 ± 0.098 | 1.39 ± 0.2 | 1.5 ± 0.24 | 1.58 ± 0.44 | 1.02 ± 0.11 | 1.24 ± 0.17 | 0.993 ± 0.2 | 0.739 ± 0.23 | 
18 | C#C[C@]1(O)CC[C@H]2[C@@H]3CCc4cc(O)ccc4[C@H]3CC[C@@]21C [Ethynylestradiol] | 1.25 ± 0.13 | 1.2 ± 0.18 | 1.07 ± 0.14 | 1.55 ± 0.48 | 1.26 ± 0.12 | 1.83 ± 0.35 |  | 0.946 ± 1.2 | 0.493 ± 0.083 | 0.186 ± 0.067 | 1.2 ± 0.48 | 1.12 ± 0.49 | 0.879 ± 0.21 | 1.2 ± 0.3 | 0.86 ± 0.092 | 1.08 ± 0.34 |  | 0.605 ± 0.054
19 | NS(=O)(=O)c1cc2c(cc1Cl)N=CNS2(=O)=O [Chlorothiazide] | 1.1 ± 0.074 | 1.29 ± 0.26 | 1.28 ± 0.3 | 1.07 ± 0.11 | 0.907 ± 0.12 | 0.51 ± 0.07 | 0.832 ± 0.72 | 0.797 ± 0.21 | 0.669 ± 0.051 | 0.488 ± 0.13 | 1.36 ± 0.085 | 1.26 ± 0.12 | 0.965 ± 0.2 | 0.933 ± 0.12 | 1.42 ± 0.24 | 1.76 ± 0.46 |  | 
20 | COc1ccc(CCN(C)CCCC(C#N)(c2ccc(OC)c(OC)c2)C(C)C)cc1OC (centres undefined) [Verapamil hydrochloride] |  |  |  |  |  |  |  | 0.259 ± 0.094 | 0.858 ± 0.066 | 0.641 ± 0.15 | 1.3 ± 0.82 | 1.14 ± 0.51 | 1.41 ± 0.062 | 0.951 ± 0.15 | 0.798 ± 0.17 | 0.818 ± 0.28 | 0.679 ± 0.11 | 
21 | CC(C)OC(=O)C(C)(C)Oc1ccc(C(=O)c2ccc(Cl)cc2)cc1 [Fenofibrate] | 1.18 ± 0.11 | 1.24 ± 0.077 | 1.36 ± 0.051 | 1.18 ± 0.19 | 0.73 ± 0.14 | 1.3 ± 0.26 | 0.529 ± 0.16 |  | 0.565 ± 0.15 |  | 1.52 ± 0.33 | 1.01 ± 0.095 | 1.17 ± 0.22 | 0.603 ± 0.024 | 1.37 ± 0.14 | 0.974 ± 0.35 | 5.23 ± 1.9 | 0.797 ± 0.21

Taken from above:
Hoechst total cell count ratio (hAMSC donor 1 [1]; [7]) with CNC(=C[N+](=O)[O-])NCCSCc1ccc(CN(C)C)o1 [Ranitidine hydrochloride] is entered as 1.14 ± 0.07
transgenic luciferase activity (hAMSC donor 1 [3]; [9]) with Nc1ncnc2c1ncn2[C@@H]1O[C@H](CO)[C@@H](O)[C@@H]1O [Vidarabine] is entered as 13.5 ± 5.3
